The text below walks through data of the supplement of paper PMC10338343.

± gives the standard deviation. This is a selection; strong and weak results do not stand in their true shares. The uncertainty is large for many entries.

The first assay relates to MIWI (PIWIL1) piRISC loaded with L1MC piRNA (30 nt). Briefly: pre-steady-state target cleavage rate (min^-1); MIWI and MILI are mouse PIWI proteins and EfPiwi is from a freshwater sponge; tags in brackets are library labels; higher = faster piRNA-guided slicing of the target. To be noted: guide: L1MC piRNA 5'p-UAACUAAAUACUAUGCAAGCUGUAGGUCCU; auxiliary factor: 500 nM mouse GTSF1. The method, boiled down:
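A transcribed, DNA-blocked target RNA library (0.1 nM) and 1 nM active affinity-purified piRISC bearing one synthetic guide were incubated in HEPES–potassium acetate buffer at 33 °C for 0–8 or 0–960 min, either with or without 500 nM GTSF1 partner protein. Uncleaved targets were sequenced, normalised to depth and to weakly complementary targets, and pooled over three trials, with k3 capped at 0.0001 min^-1. The pre-steady-state cleavage rate was derived with a burst-and-steady-state fit.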
Turning to AGCACCUACAGCUUGCAUAGUAUUUACUUA, the “pre-steady-state target cleavage rate” value is 1.4 ± 0.24. The same measure, in the same setting: then UCCUGGAUGUCGAACGUAUGUAUUUCAGUUA, with 0.000162 ± 0.032; and UGGACCAUCAGCUUGCAUAGUAUUUAGUUA, with 1.44 ± 0.056; and AGGUCGUACAGCUUGCAUAGUAUUUAGUUA, with 1.44 ± 0.065. On the same count and under the same terms, the same measure for AGGUCCUUCAGCUUGCAUAGUAUUUAGUUA: 1.42 ± 0.05. On the same count and under the same terms, the same measure for AGGACCAACAGCUUGGAUAGUAUUUAGUUA: 1.41 ± 0.059.

The assay is the same for the next values; noted with them: guide: L1MC piRNA 5'p-UAACUAAAUACUAUGCAAGCUGUAGGUCCU; auxiliary factor: none (no GTSF1).
With UCCUCCUACAGCUUGCUAUGUAUUUACAAA, the “pre-steady-state target cleavage rate” value turned out to be 0.00046 ± 0.01. Still for that read-out and setting: the same measure for AGGACCUACAGCUUGCAUAGUAAAUAGAAA: 0.00111 ± 0.0065; for UGGACCUACAGCUUGCAUAGUAAAAAGUAA: 0.00165 ± 0.0046; for UCCACCUACAGCUUGCAUAGAUAUUAGUUA: 0.00104 ± 0.006. With UCCACCUACAGCUUCGAUAGUAUUUAGAAA, the “pre-steady-state target cleavage rate” value worked out at 0.000312 ± 0.011. On the same count and under the same terms, then UCGACCUACAGCUUGCAUACAUUUUAGUUA, with 0.00102 ± 0.0059; and UGGACCUACAGCAACCAUAGUAUUUUCAAA, with 0.000143 ± 0.015. On the same count and under the same terms, then UCCACCUACAGCUUGGUAAGUAUUUAGUUA, with 0.000418 ± 0.0057; and UCCACCUACAGCUUCCAUAGUAUUUACAAA, with 0.000374 ± 0.012; and AGGACCUACAGCUUGCUAUGUAUUUAGUAA, with 0.00262 ± 0.0026.

UCCUGGAUGUCGAACCAUAGUAAUUAGAUA: the “pre-steady-state target cleavage rate” value is 0.000177 ± 0.028.

In the case of UGGACCUACAGCUUGCAUAGAUAUUAGUUA, the “pre-steady-state target cleavage rate” value came out at 0.0014 ± 0.0046. Take UCCACCUACAGCUUGCAUAGUAAUUUCAAA: the “pre-steady-state target cleavage rate” value turned out to be 0.000566 ± 0.013. Same read-out and setting: then UCCUGGAUGUCGAACGUAAGAUAUUAGUUA, with 0.000103 ± 0.056. On the same count and under the same terms, then UCGACCUACAGCUUCCAUAGUAUUUAGAUA, with 0.00126 ± 0.0058; and UCCUGGAUGUCGAACGUUACUAAUUAGUUA, with 0.000217 ± 0.027; and AGGACCUACAGCUUGCAUAGUAUUAUGAAA, with 0.00325 ± 0.0038. Still for that read-out and setting: the same measure for AGGACCUACAGCUUGCAUUCAAUUUAGUAA: 0.00118 ± 0.0072.
